US20110105397A1 (priority 2009, published 2011)

Assay: general procedure: Fmoc solid-phase peptide synthesis; NovaSyn TGR; HBTU/NMM
Details: whole synthesis, scale 0.1 mmol

TKFTLSLDVPTNIMNLLFNIAKAKNLRCQAAANAHLMAQI-NH2
crude yield: 92%
